Results from the supplement of paper PMC10849652.
The list shows a part of the results.

Protein sequences, listed by entry. Tags and fused reporters are not part of them. Lines headed by an entry give the natural chain unless they say otherwise; changes in a name come on top.
UniProt Q9Y6M5: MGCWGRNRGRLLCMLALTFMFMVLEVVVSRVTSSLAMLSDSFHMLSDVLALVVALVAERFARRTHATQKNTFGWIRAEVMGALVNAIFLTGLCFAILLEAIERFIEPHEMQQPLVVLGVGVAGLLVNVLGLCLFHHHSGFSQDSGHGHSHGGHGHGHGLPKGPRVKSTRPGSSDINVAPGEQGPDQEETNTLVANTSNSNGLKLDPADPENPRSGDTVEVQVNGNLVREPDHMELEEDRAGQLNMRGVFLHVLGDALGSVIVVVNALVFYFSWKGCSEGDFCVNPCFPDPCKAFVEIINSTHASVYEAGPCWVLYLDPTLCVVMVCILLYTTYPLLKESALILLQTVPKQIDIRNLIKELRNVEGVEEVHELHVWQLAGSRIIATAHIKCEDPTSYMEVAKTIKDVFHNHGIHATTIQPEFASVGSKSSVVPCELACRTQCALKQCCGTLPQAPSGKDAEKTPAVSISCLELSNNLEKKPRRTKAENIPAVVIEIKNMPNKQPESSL
UniProt P78382: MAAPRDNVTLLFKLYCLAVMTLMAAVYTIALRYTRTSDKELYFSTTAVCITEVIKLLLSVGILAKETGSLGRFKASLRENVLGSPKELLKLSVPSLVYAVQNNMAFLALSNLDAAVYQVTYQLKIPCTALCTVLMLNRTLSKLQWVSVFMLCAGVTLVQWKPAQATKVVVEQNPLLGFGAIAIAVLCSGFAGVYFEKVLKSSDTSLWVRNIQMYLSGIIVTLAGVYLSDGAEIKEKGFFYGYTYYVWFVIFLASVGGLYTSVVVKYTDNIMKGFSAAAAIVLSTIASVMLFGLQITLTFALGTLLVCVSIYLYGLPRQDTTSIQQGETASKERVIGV
UniProt Q8NBI5: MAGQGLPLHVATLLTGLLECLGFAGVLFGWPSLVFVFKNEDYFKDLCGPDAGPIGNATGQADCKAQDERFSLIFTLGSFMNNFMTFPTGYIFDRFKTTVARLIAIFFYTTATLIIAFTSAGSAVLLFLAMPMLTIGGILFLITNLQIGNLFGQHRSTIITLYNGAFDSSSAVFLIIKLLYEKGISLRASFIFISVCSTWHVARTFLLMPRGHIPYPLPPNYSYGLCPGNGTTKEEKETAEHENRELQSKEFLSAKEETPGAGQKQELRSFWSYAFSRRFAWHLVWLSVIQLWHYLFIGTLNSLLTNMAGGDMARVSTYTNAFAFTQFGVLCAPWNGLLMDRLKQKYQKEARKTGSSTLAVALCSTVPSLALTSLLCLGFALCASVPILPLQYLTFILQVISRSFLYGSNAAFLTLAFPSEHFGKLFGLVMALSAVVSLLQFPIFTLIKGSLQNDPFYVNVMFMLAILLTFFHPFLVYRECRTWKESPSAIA
UniProt P12235: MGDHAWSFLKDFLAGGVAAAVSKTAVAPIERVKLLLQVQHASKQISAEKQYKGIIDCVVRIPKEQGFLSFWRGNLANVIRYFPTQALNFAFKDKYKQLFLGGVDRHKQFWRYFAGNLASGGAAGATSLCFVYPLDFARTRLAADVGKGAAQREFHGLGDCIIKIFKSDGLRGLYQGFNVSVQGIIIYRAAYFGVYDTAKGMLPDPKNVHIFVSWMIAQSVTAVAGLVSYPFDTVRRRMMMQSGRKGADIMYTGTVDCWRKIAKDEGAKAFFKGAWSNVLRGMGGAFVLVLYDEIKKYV
UniProt L0R6Q1: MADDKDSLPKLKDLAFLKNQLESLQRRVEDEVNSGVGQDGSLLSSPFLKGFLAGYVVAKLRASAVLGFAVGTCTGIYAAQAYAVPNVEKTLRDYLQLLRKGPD
UniProt Q9H2H9: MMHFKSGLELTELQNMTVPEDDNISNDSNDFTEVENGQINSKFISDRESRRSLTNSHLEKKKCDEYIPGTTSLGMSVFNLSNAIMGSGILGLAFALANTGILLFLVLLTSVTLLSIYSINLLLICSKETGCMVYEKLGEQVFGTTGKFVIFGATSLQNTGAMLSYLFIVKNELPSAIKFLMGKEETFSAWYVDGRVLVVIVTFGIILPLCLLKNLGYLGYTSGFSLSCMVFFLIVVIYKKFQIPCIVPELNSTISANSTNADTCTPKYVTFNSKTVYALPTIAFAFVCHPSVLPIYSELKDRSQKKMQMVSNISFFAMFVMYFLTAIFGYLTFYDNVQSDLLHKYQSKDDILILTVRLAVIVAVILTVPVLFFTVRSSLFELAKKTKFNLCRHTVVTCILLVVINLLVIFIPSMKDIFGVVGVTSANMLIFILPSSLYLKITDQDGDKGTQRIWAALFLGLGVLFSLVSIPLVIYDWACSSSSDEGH
UniProt Q8NEW0: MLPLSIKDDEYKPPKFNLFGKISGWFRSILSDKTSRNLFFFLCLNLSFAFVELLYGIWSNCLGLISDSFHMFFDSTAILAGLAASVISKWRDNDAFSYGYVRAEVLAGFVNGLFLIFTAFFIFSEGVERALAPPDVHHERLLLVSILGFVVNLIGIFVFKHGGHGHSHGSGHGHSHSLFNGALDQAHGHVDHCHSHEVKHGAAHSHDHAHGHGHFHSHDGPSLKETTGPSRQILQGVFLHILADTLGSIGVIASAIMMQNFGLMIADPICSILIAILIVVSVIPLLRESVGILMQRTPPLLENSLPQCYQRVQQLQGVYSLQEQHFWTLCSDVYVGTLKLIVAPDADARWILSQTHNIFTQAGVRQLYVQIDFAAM
UniProt Q9BWU0: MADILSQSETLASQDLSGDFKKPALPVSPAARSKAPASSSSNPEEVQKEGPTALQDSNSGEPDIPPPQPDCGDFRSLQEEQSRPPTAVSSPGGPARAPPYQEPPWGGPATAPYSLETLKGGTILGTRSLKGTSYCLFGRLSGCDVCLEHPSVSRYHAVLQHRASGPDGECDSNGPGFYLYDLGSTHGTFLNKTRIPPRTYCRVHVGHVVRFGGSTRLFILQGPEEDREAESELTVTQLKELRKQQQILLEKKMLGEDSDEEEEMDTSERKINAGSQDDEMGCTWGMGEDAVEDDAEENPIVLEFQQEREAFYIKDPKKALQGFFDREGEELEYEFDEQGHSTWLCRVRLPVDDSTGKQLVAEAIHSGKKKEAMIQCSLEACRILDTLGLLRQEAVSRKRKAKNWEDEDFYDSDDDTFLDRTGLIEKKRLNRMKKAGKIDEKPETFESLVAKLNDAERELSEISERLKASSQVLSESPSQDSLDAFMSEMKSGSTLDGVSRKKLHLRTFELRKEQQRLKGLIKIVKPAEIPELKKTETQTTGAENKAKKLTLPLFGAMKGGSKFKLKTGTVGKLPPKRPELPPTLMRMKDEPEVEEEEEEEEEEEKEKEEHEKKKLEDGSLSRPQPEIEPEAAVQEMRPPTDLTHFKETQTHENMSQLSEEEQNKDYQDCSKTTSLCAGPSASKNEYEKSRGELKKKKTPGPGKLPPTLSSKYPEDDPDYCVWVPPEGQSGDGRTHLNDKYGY
UniProt Q6KCM7: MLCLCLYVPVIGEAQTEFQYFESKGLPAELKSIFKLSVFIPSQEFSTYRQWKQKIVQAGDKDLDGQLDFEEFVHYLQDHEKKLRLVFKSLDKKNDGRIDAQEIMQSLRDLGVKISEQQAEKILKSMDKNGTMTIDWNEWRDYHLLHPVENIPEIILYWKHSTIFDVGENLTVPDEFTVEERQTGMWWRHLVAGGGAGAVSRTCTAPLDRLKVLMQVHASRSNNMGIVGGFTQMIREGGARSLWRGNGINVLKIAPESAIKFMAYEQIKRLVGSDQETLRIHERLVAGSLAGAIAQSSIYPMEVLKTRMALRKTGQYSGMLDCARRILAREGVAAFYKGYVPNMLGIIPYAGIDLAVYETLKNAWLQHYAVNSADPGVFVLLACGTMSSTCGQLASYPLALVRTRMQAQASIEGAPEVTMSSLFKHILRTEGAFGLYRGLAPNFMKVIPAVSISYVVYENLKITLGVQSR
UniProt Q9BQT8: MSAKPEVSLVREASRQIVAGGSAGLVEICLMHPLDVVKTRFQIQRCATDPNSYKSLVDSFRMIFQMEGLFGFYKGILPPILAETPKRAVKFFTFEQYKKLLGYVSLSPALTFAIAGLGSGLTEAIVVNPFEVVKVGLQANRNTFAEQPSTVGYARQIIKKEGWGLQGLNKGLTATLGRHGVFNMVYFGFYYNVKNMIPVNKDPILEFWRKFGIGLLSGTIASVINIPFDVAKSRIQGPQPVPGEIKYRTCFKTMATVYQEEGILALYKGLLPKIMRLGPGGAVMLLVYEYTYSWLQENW
UniProt Q8WUX1, whole entry, looked up: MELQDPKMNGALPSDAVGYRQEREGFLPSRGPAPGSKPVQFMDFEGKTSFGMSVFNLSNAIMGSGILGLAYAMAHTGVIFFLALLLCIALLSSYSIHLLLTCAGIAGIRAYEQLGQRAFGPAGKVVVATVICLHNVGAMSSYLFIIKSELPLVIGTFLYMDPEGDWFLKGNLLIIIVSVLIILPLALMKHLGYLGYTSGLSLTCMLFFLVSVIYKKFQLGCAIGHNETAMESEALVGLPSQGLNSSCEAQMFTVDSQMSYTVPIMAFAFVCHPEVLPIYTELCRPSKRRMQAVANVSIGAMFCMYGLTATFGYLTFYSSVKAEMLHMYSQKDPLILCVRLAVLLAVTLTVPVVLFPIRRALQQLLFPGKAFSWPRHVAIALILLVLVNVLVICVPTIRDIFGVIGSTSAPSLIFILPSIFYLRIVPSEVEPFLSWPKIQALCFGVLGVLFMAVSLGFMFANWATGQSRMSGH
UniProt Q9NP59: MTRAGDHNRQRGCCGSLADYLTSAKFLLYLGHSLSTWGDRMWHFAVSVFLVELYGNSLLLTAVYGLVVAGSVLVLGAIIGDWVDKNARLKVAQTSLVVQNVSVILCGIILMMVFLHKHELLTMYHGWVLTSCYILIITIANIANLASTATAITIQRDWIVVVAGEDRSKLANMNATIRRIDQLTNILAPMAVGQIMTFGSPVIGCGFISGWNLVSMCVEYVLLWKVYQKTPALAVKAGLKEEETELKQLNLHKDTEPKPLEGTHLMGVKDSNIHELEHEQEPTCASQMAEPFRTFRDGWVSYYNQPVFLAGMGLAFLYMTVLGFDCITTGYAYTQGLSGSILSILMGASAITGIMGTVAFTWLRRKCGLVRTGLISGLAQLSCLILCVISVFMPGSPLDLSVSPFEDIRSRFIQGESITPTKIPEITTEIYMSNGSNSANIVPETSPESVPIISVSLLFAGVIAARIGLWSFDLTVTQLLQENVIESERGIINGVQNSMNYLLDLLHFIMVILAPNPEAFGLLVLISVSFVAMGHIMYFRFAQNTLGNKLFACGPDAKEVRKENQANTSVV
UniProt P55011: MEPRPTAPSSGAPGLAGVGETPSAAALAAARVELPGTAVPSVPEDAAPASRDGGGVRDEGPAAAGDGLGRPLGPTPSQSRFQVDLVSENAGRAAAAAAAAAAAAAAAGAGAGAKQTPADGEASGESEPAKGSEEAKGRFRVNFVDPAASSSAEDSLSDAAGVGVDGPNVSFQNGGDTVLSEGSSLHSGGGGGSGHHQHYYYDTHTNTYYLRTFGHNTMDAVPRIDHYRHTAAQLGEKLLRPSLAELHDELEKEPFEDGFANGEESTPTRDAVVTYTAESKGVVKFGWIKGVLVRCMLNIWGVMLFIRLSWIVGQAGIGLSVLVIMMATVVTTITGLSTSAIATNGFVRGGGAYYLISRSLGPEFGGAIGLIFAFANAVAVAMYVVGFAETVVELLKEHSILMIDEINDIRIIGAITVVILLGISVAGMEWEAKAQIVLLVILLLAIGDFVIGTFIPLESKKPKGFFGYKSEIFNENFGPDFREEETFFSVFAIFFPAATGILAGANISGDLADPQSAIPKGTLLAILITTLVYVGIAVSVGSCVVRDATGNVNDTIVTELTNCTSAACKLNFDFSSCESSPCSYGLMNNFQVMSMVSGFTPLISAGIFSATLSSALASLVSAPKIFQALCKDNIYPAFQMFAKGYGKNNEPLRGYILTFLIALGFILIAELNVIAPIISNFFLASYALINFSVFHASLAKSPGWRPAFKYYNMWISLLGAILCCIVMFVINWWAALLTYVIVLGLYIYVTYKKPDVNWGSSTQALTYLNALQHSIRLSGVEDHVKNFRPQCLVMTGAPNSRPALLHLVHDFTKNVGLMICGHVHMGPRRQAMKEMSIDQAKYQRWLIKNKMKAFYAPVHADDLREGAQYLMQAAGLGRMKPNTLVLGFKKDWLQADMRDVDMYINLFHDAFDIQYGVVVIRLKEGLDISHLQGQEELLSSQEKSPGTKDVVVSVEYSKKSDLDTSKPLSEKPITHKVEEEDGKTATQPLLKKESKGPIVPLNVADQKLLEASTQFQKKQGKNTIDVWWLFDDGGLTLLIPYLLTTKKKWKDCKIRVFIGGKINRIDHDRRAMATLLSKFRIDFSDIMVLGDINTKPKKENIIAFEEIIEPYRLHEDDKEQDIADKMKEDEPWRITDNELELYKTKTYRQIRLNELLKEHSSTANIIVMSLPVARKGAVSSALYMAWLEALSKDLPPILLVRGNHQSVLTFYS

Columns and labels:
Test in all cases: log2 fold change, soluble protein after heating vs DMSO (PISA); higher = thermal stabilisation; K562 cells, 10 uM, 30 min; active = over 0.2 and 3.5 SD of the protein, either way, in both replicates (recomputed)
[1] = compound: CC1=C(C=C(C=C1)NC(=O)C2=CC(=CC=C2)C(C)(C)C#N)NC3=CC4=C(C=C3)N=CN(C4=O)C
In short: (§1)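 K562 cells at 2×10^6 cells/mL were treated for 30 min with 10 μM compound, and aliquots were heated for 3 min over 48°C-58°C before pooling. Extraction used PBS with 0.5% NP-40 at 4°C, and soluble protein was the supernatant after 21,000xg for 90 min, measured by TMTpro 16plex LC-MS/MS with channel sums equalised. Thermal stability values, relative to control samples and from duplicates, are log2 fold changes.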

[2] = compound: CC1=C(C=C(C=C1)NC(=O)C2=CC(=CC=C2)N(C)C)NC(=O)C3=CC=C(C=C3)O
In short: as §1

[3] = compound: CC1=CC=C(C=C1)SC2=C3C=C(SC3=CN=C2)C(=O)N
In short: as §1

[4] = compound: CC1=NC(=CC=C1)C2=C(N=C(N2)C(C)(C)C)C3=CC4=NC=CN=C4C=C3
In short: as §1

Nexturastat A = compound: CCCCN(Cc1ccc(C(=O)NO)cc1)C(=O)Nc1ccccc1 [Nexturastat A]
In short: as §1

vemurafenib = compound: CCCS(=O)(=O)Nc1ccc(F)c(C(=O)c2c[nH]c3ncc(-c4ccc(Cl)cc4)cc23)c1F [vemurafenib]
In short: as §1

[5] = compound: CCCS(=O)(=O)Nc1ccc(F)c(C(=O)c2c[nH]c3ncc(Cl)cc23)c1F
In short: as §1

[6] = compound: CCCc1cc(C)[nH]c(=O)c1CNC(=O)c1cc(-c2ccnc(N3CCN(C)CC3)c2)cc2c1cnn2C(C)C
In short: as §1

givinostat = compound: CCN(CC)Cc1ccc2cc(COC(=O)Nc3ccc(C(=O)NO)cc3)ccc2c1 [givinostat]
In short: as §1

barasertib = compound: CCN(CCCOc1ccc2c(Nc3cc(CC(=O)Nc4cccc(F)c4)[nH]n3)ncnc2c1)CCOP(=O)(O)O [barasertib]
In short: as §1

Measured: log2 fold change

SLC38A10 (UniProt Q9HBR0)
inactive: [1] -0.078 | [2] 0.03 | [3] 0.081 | [4] -0.014 | Nexturastat A -0.074 | vemurafenib 0.02 | [5] 0.115 | [6] -0.069 | givinostat 0.021 | barasertib 0.058

SLC12A4 (UniProt Q9UP95)
inactive: [1] 0.025 | [2] 0.027 | [3] 0.059 | [4] 0.015 | Nexturastat A -0.012 | vemurafenib -0.014 | [5] -0.052 | [6] -0.023 | givinostat -0.037 | barasertib 0.066

SLC7A5 (UniProt Q01650)
inactive: [1] 0.183 | [2] -0.016 | [3] -0.006 | [4] 0.037 | Nexturastat A 0.047 | vemurafenib 0.054 | [5] 0.028 | [6] -0.096 | givinostat 0.028 | barasertib -0.033

SLC4A2 (UniProt P04920)
inactive: [1] 0.04 | [2] 0.008 | [3] 0.039 | [4] -0.017 | Nexturastat A 0.046 | vemurafenib 0.002 | [5] 0.035 | [6] -0.043 | givinostat 0.037 | barasertib 0.045

SLC25A31 (UniProt Q9H0C2)
inactive: [1] 0.045 | [2] -0.001 | [3] 0.03 | [4] 0.004 | Nexturastat A -0.028 | vemurafenib 0.011 | [5] 0.014 | [6] -0.031 | givinostat 0 | barasertib 0

SLC30A1 (UniProt Q9Y6M5)
inactive: [1] -0.01 | [2] -0.016 | [3] -0.056 | [4] 0.009 | Nexturastat A -0.069 | vemurafenib 0.018 | [5] -0.04 | [6] -0.076 | givinostat 0.006 | barasertib -0.014

SLC35A1 (UniProt P78382)
inactive: [1] -0.027 | [2] 0 | [3] -0.045 | [4] 0.06 | Nexturastat A -0.037 | [5] 0 | [6] -0.07 | givinostat -0.024 | barasertib -0.05
active: vemurafenib 0.382

SLC25A16 (UniProt P16260)
inactive: [1] -0.025 | [2] 0.002 | [3] -0.098 | [4] 0 | Nexturastat A -0.005 | vemurafenib -0.077 | [5] -0.078 | [6] 0.039 | givinostat -0.008 | barasertib 0.054

SLC43A3 isoform 2 (UniProt Q8NBI5)
inactive: [1] -0.049 | [2] 0.05 | [3] -0.003 | [4] 0.015 | Nexturastat A -0.019 | vemurafenib -0.066 | [5] -0.032 | [6] -0.019 | givinostat -0.042 | barasertib 0.001

SLC25A4 (UniProt P12235)
inactive: [1] 0.041 | [2] 0.029 | [3] 0.073 | [4] 0.017 | vemurafenib -0.028 | [5] -0.02 | [6] -0.032 | givinostat -0.049 | barasertib -0.009
active: Nexturastat A -0.228

SLC35A4 (UniProt L0R6Q1)
inactive: [1] 0.017 | [2] -0.092 | [3] 0.017 | [4] 0.034 | Nexturastat A 0.033 | vemurafenib 0.01 | [5] 0.03 | [6] -0.134 | givinostat -0.041 | barasertib 0.079

SLC38A1 (UniProt Q9H2H9)
inactive: [1] 0.028 | [2] 0.031 | [3] 0.016 | [4] -0.007 | Nexturastat A -0.018 | vemurafenib -0.032 | [5] 0 | [6] -0.192 | givinostat -0.05 | barasertib 0

SLC30A7 (UniProt Q8NEW0)
inactive: [1] -0.03 | [2] 0.003 | [3] 0.03 | [4] -0.072 | Nexturastat A -0.108 | vemurafenib 0.072 | [5] -0.019 | [6] -0.148 | givinostat 0.081 | barasertib 0.032

SLC11A2 isoform 3 (UniProt P49281)
inactive: [1] 0.062 | [2] 0.037 | [3] -0.002 | [4] 0.065 | Nexturastat A 0.257 | vemurafenib 0.035 | [5] 0.005 | [6] -0.216 | givinostat -0.027 | barasertib -0.02

SLC4A1AP (UniProt Q9BWU0)
inactive: [1] -0.085 | [2] -0.054 | [3] -0.032 | [4] 0.004 | Nexturastat A 0.077 | vemurafenib 0.065 | [5] -0.05 | [6] -0.007 | givinostat 0.077 | barasertib 0.006

SLC25A19 (UniProt Q9HC21)
inactive: [1] -0.023 | [2] 0.025 | [3] -0.001 | [4] 0 | Nexturastat A -0.042 | vemurafenib -0.029 | [5] -0.006 | [6] -0.058 | givinostat -0.016 | barasertib -0.028

SLC19A1 (UniProt P41440)
inactive: [1] 0.112 | [2] -0.054 | [3] -0.019 | [4] -0.023 | Nexturastat A -0.107 | vemurafenib 0.002 | [5] -0.031 | [6] -0.018 | givinostat 0.007 | barasertib -0.011

SLC1A5 (UniProt Q15758)
inactive: [1] 0.007 | [2] 0.002 | [3] 0.019 | [4] -0.01 | Nexturastat A -0.053 | vemurafenib -0.006 | [5] 0.012 | [6] -0.01 | givinostat -0.022 | barasertib -0.04

SLC25A25 isoform 3 (UniProt Q6KCM7)
inactive: [1] 0.017 | [2] 0.046 | [3] 0.009 | [4] 0.024 | Nexturastat A -0.043 | vemurafenib 0.017 | [5] 0.003 | [6] -0.057 | givinostat -0.038 | barasertib -0.009

SLC25A22 (UniProt Q9H936)
inactive: [1] 0.007 | [2] 0 | [3] -0.009 | [4] 0.002 | Nexturastat A -0.099 | vemurafenib -0.04 | [5] -0.018 | [6] -0.049 | givinostat -0.012 | barasertib -0.011

SLC25A21 (UniProt Q9BQT8)
inactive: [1] -0.034 | [2] 0.018 | [3] -0.003 | [4] -0.009 | Nexturastat A -0.047 | vemurafenib -0.054 | [5] -0.034 | [6] -0.1 | givinostat -0.037 | barasertib -0.032

SLC25A17 (UniProt O43808)
inactive: [1] 0.112 | [2] -0.022 | [3] 0.039 | [4] 0.093 | Nexturastat A -0.079 | vemurafenib 0.006 | [5] 0.105 | [6] -0.042 | givinostat -0.019 | barasertib -0.037

SLC25A51 (UniProt Q9H1U9)
inactive: [1] -0.028 | [2] 0.028 | [3] 0 | [4] 0.012 | Nexturastat A -0.02 | vemurafenib 0.029 | [5] -0.044 | [6] -0.003 | givinostat -0.014 | barasertib -0.016

SLC7A1 (UniProt P30825)
inactive: [1] 0.006 | [2] 0.04 | [3] -0.008 | [4] -0.01 | Nexturastat A -0.052 | vemurafenib 0.009 | [5] 0.007 | [6] -0.036 | givinostat 0.015 | barasertib -0.002

SLC39A6 (UniProt Q13433)
inactive: [1] -0.09 | [2] -0.076 | [3] -0.028 | [4] 0.037 | Nexturastat A -0.05 | vemurafenib -0.068 | [5] -0.039 | [6] -0.149 | givinostat 0.029 | barasertib -0.095

SLC25A38 (UniProt Q96DW6)
inactive: [1] 0.075 | [2] -0.011 | [3] -0.047 | [4] 0.076 | Nexturastat A -0.012 | vemurafenib -0.059 | [5] -0.019 | [6] -0.145 | givinostat -0.004 | barasertib 0.014

SLC38A5 (UniProt Q8WUX1)
inactive: [1] 0.048 | [2] -0.005 | [3] -0.01 | [4] -0.007 | Nexturastat A -0.077 | vemurafenib 0 | [5] 0.061 | [6] -0.065 | givinostat 0.018 | barasertib -0.016

SLC12A9 (UniProt Q9BXP2)
inactive: [1] -0.007 | [2] 0.056 | [3] -0.04 | [4] 0.005 | Nexturastat A -0.008 | vemurafenib 0.017 | [5] -0.012 | [6] -0.059 | givinostat -0.014 | barasertib 0.083

SLC40A1 (UniProt Q9NP59)
inactive: [1] -0.066 | [2] -0.028 | [3] 0.028 | [4] -0.05 | Nexturastat A 0.099 | vemurafenib 0.053 | [5] -0.049 | [6] -0.1 | givinostat -0.067 | barasertib 0.1

SLC12A2 (UniProt P55011)
inactive: [1] 0.013 | [2] -0.009 | [3] 0.007 | [4] -0.027 | Nexturastat A 0.01 | vemurafenib 0.015 | [5] -0.003 | [6] -0.026 | givinostat -0.004 | barasertib -0.019

Quoted at random: two records from the list
SLC38A1 (UniProt Q9H2H9)
inactive: [1] 0.028 | [2] 0.031 | [3] 0.016 | [4] -0.007 | Nexturastat A -0.018 | vemurafenib -0.032 | [5] 0 | [6] -0.192 | givinostat -0.05 | barasertib 0

SLC1A5 (UniProt Q15758)
inactive: [1] 0.007 | [2] 0.002 | [3] 0.019 | [4] -0.01 | Nexturastat A -0.053 | vemurafenib -0.006 | [5] 0.012 | [6] -0.01 | givinostat -0.022 | barasertib -0.04
